Reference: paper PMC5355826
These are yes or no findings as the source states them, for the method shown. Binding seen in cells or lysates may run through a third protein. Binding calls can cover weak binding; strength is not graded here.

Protein sequences, listed by entry. Tags and fused reporters are not part of them. Lines headed by an entry give the natural chain unless they say otherwise; changes in a name come on top.
UniProt Q8VBV4: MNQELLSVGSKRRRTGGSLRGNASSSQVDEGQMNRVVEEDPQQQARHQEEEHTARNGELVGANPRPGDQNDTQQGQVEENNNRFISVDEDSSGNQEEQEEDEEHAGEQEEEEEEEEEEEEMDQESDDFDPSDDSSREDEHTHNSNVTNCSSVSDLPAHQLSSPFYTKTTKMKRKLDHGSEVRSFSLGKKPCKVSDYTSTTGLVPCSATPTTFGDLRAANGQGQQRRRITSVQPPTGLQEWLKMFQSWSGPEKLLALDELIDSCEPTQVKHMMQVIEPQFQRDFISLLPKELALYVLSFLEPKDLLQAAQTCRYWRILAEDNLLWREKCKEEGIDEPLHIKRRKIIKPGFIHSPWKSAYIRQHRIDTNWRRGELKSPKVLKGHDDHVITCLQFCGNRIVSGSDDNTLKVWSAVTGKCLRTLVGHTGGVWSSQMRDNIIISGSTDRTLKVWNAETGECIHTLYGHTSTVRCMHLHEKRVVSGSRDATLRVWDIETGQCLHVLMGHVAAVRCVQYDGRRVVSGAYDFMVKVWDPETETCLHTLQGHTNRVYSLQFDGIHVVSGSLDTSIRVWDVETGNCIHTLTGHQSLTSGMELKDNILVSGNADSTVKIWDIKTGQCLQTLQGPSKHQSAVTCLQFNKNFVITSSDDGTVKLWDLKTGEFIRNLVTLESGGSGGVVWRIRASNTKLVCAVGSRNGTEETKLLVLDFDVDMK

Biological target: Flag-tagged WD40 domain of FBXW7 (mouse) (UniProt Q8VBV4)
Experiment: co-IP

For “Myc-tagged SHP2 (from UniProt P35235-1 1-597)”, the binding was “binds”.
